Earlier results as cited in patent US20250129429A1, “GENE FUSIONS IN SARCOMA” (Foundation Medicine, Inc., priority 2021, published 2025).
Read-outs that look alike come from different tables or passages of the source. For at least one compound, name, drawing or mass did not settle the structure.

Test system: NTRK fusion-positive cancers

C[C@@H]1CCc2ncc(F)cc2[C@H]2CCCN2c2ccn3ncc(c3n2)C(=O)N1 [selitrectinib]
ORR (patients harboring a TRK kinase mutation (9/20)): 45% | ORR (patients with NTRK fusion-positive cancers previously treated with at least 1 prior TRK inhibitor (10/29)): 34%
